Measurements: patent publication US20240025959A1
Results are given in words; binding and its absence hold for the method and conditions named. Binding seen in cells or lysates may run through a third protein. Some results given as binding are weak or reduced against the parent protein; the word gives no strength.

By UniProt entry, the sequences of proteins in these tests, tags left out.
UniProt Q96P20: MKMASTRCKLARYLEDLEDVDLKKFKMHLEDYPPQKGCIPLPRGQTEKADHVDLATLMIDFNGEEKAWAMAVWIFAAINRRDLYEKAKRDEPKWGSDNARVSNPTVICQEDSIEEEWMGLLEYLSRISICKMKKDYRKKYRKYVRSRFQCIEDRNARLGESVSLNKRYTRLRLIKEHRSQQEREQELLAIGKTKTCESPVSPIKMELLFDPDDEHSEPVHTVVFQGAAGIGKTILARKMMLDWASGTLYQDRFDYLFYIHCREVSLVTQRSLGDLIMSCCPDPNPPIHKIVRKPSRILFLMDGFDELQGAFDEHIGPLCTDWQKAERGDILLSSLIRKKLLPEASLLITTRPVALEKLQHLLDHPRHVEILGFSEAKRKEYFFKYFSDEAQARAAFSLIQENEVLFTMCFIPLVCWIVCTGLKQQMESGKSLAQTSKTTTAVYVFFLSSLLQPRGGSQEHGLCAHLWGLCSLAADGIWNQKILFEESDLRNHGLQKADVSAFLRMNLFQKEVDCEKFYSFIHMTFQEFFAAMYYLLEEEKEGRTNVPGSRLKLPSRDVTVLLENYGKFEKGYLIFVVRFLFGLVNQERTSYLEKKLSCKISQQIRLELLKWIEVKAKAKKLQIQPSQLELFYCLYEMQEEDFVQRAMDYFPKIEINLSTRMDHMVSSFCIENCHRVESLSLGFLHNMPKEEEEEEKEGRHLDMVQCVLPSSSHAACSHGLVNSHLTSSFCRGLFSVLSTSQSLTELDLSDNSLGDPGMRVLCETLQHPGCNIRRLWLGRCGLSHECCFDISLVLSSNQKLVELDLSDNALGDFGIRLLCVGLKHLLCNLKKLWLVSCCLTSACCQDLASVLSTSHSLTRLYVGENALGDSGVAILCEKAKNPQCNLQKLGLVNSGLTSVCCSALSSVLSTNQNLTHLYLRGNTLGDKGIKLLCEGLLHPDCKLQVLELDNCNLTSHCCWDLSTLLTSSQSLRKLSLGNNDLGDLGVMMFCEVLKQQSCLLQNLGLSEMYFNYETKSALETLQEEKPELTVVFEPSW

Tests used:
ATG9A (human) (human) [1] = molecular target: T1, ATG9A (human) (human) (UniProt Q7Z3C6); assay: co-IP with anti-Flag beads; WT, BECN2 KO and ULK1 KO HEK293T cells co-transfected with HA-ATG9A and Flag-NLRP3 (FIG. 30E)
T1 sequence (looked up): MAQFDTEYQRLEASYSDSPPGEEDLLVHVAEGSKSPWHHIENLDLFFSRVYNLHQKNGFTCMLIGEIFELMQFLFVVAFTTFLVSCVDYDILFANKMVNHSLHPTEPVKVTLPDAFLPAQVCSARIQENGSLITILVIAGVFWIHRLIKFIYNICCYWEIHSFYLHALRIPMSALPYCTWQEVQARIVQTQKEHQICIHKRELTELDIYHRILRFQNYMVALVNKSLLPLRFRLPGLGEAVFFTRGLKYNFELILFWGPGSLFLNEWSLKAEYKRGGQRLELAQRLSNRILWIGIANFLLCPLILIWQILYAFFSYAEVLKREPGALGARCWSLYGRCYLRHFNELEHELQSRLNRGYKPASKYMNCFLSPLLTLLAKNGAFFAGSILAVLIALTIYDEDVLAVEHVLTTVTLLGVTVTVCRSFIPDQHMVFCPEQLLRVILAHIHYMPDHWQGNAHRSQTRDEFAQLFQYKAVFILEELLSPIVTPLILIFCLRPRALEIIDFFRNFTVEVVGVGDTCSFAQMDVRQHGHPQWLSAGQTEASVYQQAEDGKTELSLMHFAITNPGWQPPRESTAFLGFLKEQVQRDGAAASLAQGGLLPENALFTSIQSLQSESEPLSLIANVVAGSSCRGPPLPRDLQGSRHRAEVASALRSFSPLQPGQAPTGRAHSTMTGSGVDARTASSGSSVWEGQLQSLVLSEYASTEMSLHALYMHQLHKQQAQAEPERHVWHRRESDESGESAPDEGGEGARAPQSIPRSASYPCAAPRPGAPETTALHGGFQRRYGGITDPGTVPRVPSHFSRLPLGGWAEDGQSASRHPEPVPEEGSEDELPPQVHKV

ATG9A (human) (human) [2] = molecular target: T1, ATG9A (human) (human); assay: discussion of Example 1; co-IP of Flag-NLRP3 with HA-ATG9A in BECN2 KO HEK293T cells (FIG. 30E)

With “NLRP3 (human, full length) (from UniProt Q96P20 1-1036)” the binding (ATG9A (human) (human) [1]) was “binds” and the binding (ATG9A (human) (human) [2]) was “binds”.
